Experiments:
[1] = tested on: RPMI8226 myeloma cancer cells; type: cell-based, human
[2] = tested on: HL60 promyelocytic leukemia cells; type: cell-based, human
[3] = tested on: THP1 acute monocytic leukemia cells; type: cell-based, human
[4] = tested on: normal peripheral blood-derived mononuclear cells (PBMC); type: cell-based

In the case of `CCOC(=O)C(Cc1ccc(N(CCCl)CCCl)cc1)N=CN1CCOCC1` (centres unmarked) [EE-MOR-MEL], the “fold lower IC50 than melphalan, RPMI8226” value [1] is reported as “more than 2.8 fold”, the “fold lower IC50 than melphalan, HL60” value [2] is reported as “around 12 fold” and the “fold lower IC50 than melphalan, THP1” value [3] is reported as roughly 160 fold.
For `COC(=O)C(Cc1ccc(N(CCCl)CCCl)cc1)N=CN1CCOCC1` (centres unmarked) [EM-MOR-MEL], the “fold higher IC50 in PBMC than in HL60” value [4] was roughly 15 fold, the “fold higher IC50 in PBMC than in THP1” value [4] was “around 90 fold” and the “fold higher IC50 in PBMC than in multiple myeloma (RPMI8226) cells” value [4] was roughly 2 fold.
`CCOC(=O)C(N)Cc1ccc(N(CCCl)CCCl)cc1` (centres unmarked) [EE-MEL] was tested, and the “fold lower IC50 than melphalan, RPMI8226” value [1] was roughly 8 fold, the “fold lower IC50 than melphalan, HL60” value [2] was roughly 5.5 fold and the “fold lower IC50 than melphalan, THP1” value [3] was roughly 20 fold. The “fold higher IC50 in PBMC than in leukemia cells” value [4] was “around 4.5 fold” and the “fold higher IC50 in PBMC than in multiple myeloma (RPMI8226) cells” value [4] was roughly 2 fold.
